Test results reported in PMC7036369.

biological target: T1, soybean eIF4E1 of cultivar Tianlong 1 fused to YN (pEarleyGate202-YN) (soybean (Glycine max)) (UniProt C6ZJZ3); assay: split reporter; BiFC (YFP halves): eIF4E1-YN and SMV-YC co-agroinfiltrated into leaves of 4-week-old N. benthamiana; confocal microscopy
T1 sequence: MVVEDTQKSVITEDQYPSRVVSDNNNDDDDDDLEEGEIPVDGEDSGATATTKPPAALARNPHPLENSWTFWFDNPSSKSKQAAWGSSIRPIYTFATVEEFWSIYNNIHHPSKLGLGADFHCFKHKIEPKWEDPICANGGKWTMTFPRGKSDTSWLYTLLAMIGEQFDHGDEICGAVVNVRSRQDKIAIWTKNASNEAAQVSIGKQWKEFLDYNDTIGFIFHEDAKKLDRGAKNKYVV

**Q.** How did the binding turn out when “soybean mosaic virus (SMV) strain SC3 NIa-Pro fused to YC (pEarleyGate201-YC)” was run?
**A.** binds

**Q.** With “soybean mosaic virus (SMV) strain SC3 NIb fused to YC (pEarleyGate201-YC)” as the substance, how does the binding read?
**A.** binds

**Q.** “soybean mosaic virus (SMV) strain SC3 VPg fused to YC (pEarleyGate201-YC)” was tested. Which binding did it give?
**A.** binds

biological target: T2, soybean eIF4E1 (eukaryotic translation initiation factor 4E1) of cultivar Tianlong 1, bait in pBT3-STE (soybean (Glycine max)) (UniProt C6ZJZ3); assay: two-hybrid; Matchmaker DUAL membrane system (Dualsystems Biotech); eIF4E1 as bait in pBT3-STE, SMV genes as preys in pPR3; S. cerevisiae NMY51; SD/−Leu/−Trp/−Ade/−His/+X-α-Gal, blue colonies positive
T2 sequence: T1 sequence

**Q.** “soybean mosaic virus (SMV) strain SC3 coat protein (CP), prey in pPR3” was tested. Which binding did it give?
**A.** no binding

**Q.** For “soybean mosaic virus (SMV) strain SC3 cylindrical inclusion protein (CI), prey in pPR3”, which binding is on record?
**A.** no binding

**Q.** How did the binding turn out when “soybean mosaic virus (SMV) strain SC3 helper component-proteinase (HC-Pro), prey in pPR3” was run?
**A.** no binding

**Q.** For “soybean mosaic virus (SMV) strain SC3 nuclear inclusion b (NIb), prey in pPR3”, which binding is on record?
**A.** binds

**Q.** For “soybean mosaic virus (SMV) strain SC3 protein 1 (P1), prey in pPR3”, which binding is on record?
**A.** no binding

**Q.** Which binding does the source give for “soybean mosaic virus (SMV) strain SC3 protein 3 (P3), prey in pPR3” here?
**A.** no binding

**Q.** Which binding does the source give for “soybean mosaic virus (SMV) strain SC3 six kilodalton 1 protein (6K1), prey in pPR3” here?
**A.** no binding

**Q.** For “soybean mosaic virus (SMV) strain SC3 six kilodalton 2 protein (6K2), prey in pPR3”, which binding is on record?
**A.** no binding

**Q.** Which binding does the source give for “soybean mosaic virus (SMV) strain SC3 viral genome-linked protein (VPg), prey in pPR3” here?
**A.** binds

These are yes or no findings as the source states them, for the method shown. Binding calls can cover weak binding; strength is not graded here. For part of these data: In cells and extracts the contact can be indirect. For part of these data: Tags and fused reporters may be left off the sequences shown.
